Results reported in PMC3802552.
Positions count from the first letter of the chain named. Results are given in words; binding and its absence hold for the method and conditions named. Some results given as binding are weak or reduced against the parent protein; the word gives no strength. Each block holds one molecule with its values, some of them ahead of it.

Protein sequences, listed by entry. Tags and fused reporters are not part of them.
UniProt O02482: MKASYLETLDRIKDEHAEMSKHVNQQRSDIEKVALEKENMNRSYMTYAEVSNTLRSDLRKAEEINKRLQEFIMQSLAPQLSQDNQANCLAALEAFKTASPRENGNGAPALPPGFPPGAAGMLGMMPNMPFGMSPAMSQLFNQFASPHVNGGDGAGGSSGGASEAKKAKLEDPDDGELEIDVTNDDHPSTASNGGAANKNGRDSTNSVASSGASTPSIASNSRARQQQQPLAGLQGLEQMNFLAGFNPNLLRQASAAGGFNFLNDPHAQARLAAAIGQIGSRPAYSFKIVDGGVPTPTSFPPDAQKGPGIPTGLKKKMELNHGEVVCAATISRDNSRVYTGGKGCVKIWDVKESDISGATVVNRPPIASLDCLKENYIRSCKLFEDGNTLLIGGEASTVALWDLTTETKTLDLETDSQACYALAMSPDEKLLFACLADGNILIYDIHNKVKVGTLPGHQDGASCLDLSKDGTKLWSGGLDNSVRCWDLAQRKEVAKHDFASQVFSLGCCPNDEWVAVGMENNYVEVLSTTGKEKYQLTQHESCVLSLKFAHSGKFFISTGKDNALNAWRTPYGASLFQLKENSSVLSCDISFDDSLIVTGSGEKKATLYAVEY

Experiments:
[1] = biological target: T1, TBX-2^LKIE→AAAA, two-hybrid bait (C. elegans) (UniProt Q19691); experiment: two-hybrid; yeast two-hybrid of wild-type and mutant TBX-2 with UNC-37 as a control for expression; further format not told (Supplementary Figure 1)
T1 sequence: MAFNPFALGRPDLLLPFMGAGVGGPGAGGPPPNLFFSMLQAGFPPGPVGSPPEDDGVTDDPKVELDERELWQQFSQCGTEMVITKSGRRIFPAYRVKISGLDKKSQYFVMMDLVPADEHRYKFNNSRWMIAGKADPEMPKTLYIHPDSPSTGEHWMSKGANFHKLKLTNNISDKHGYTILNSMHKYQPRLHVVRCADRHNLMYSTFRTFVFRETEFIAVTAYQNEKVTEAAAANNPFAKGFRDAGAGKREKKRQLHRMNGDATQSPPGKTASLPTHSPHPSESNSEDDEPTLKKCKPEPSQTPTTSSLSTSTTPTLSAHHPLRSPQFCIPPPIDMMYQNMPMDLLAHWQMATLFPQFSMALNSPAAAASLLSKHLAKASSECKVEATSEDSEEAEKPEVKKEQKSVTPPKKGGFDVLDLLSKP

[2] = biological target: T2, TBX-2^LKIE/VKKE→AAAA double mutant, two-hybrid bait (C. elegans) (UniProt Q19691); experiment: as above
T2 sequence: T1 sequence with V399A, K400A, K401A, E402A

[3] = biological target: T3, TBX-2 (C. elegans T-box factor), wild type, two-hybrid bait (C. elegans) (UniProt Q19691); experiment: as above
T3 sequence: T1 sequence with A230L, A231K, A232I, A233E

[4] = biological target: T4, TBX-2^VKKE→AAAA, two-hybrid bait (C. elegans) (UniProt Q19691); experiment: as above
T4 sequence: T1 sequence with A230L, A231K, A232I, A233E, V399A, K400A, K401A, E402A

[5] = biological target: T2, TBX-2^LKIE/VKKE→AAAA double mutant, two-hybrid bait (C. elegans); experiment: two-hybrid; L40 yeast with HIS3 and lacZ reporters regulated by LexA binding sites; TBX-2 baits in pLexA-NLS, UBC-9 prey in pACT; scored in plate assays for histidine prototrophy and ß-gal expression, level quantified by ß-gal activity (n = 7, three independent experiments)
[6] = biological target: T3, TBX-2 (C. elegans T-box factor), wild type, two-hybrid bait (C. elegans); experiment: as above

- binding [1]: binds
- binding [2]: binds
- binding [3]: binds
- binding [4]: binds
Molecule: UNC-37 (Groucho-family co-repressor) (from UniProt O02482 1-612)

- binding [5]: no binding
- binding [6]: binds
B1: UBC-9 (E2 SUMO-conjugating enzyme), two-hybrid prey (enzyme, UniProt Q95017 1-166)
chain: MSGIAAGRLAEERKHWRKDHPFGFIAKPVKNADGTLNLFNWECAIPGRKDTIWEGGLYRIRMLFKDDFPSTPPKCKFEPPLFHPNVYPSGTVCLSLLDENKDWKPSISIKQLLIGIQDLLNHPNIEDPAQAEAYQIYCQNRAEYEKRVKKEAVKYAAELVQKQMLE
